Measurements reported in paper PMC7969951.
Results are given in words; binding and its absence hold for the method and conditions named. In cells and extracts the contact can be indirect. Some results given as binding are weak or reduced against the parent protein; the word gives no strength. Tags and fused reporters may be left off the sequences shown.

T1: FLAG-tagged USP39 (UniProt Q53GS9)
T1 sequence: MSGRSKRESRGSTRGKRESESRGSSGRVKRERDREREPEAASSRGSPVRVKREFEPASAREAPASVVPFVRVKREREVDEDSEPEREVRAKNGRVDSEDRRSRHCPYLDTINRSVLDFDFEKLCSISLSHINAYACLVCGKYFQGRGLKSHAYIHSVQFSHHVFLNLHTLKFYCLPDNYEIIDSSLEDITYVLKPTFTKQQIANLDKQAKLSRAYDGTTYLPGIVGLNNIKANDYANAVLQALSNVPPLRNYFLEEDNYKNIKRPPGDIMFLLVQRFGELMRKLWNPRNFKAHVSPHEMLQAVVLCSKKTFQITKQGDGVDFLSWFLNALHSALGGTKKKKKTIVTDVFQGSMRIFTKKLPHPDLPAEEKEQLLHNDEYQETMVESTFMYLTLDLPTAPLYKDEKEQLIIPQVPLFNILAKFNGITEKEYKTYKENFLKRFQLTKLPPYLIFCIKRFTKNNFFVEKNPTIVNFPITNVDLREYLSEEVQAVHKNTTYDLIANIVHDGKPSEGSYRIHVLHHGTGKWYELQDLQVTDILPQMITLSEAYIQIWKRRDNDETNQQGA

B1: SART1 (protein, UniProt O43290 1-800)
chain: MGSSKKHRGEKEAAGTTAAAGTGGATEQPPRHREHKKHKHRSGGSGGSGGERRKRSRERGGERGSGRRGAEAEARSSTHGRERSQAEPSERRVKREKRDDGYEAAASSKTSSGDASSLSIEETNKLRAKLGLKPLEVNAIKKEAGTKEEPVTADVINPMALRQREELREKLAAAKEKRLLNQKLGKIKTLGEDDPWLDDTAAWIERSRQLQKEKDLAEKRAKLLEEMDQEFGVSTLVEEEFGQRRQDLYSARDLQGLTVEHAIDSFREGETMILTLKDKGVLQEEEDVLVNVNLVDKERAEKNVELRKKKPDYLPYAEDESVDDLAQQKPRSILSKYDEELEGERPHSFRLEQGGTADGLRERELEEIRAKLRLQAQSLSTVGPRLASEYLTPEEMVTFKKTKRRVKKIRKKEKEVVVRADDLLPLGDQTQDGDFGSRLRGRGRRRVSEVEEEKEPVPQPLPSDDTRVENMDISDEEEGGAPPPGSPQVLEEDEAELELQKQLEKGRRLRQLQQLQQLRDSGEKVVEIVKKLESRQRGWEEDEDPERKGAIVFNATSEFCRTLGEIPTYGLAGNREEQEELMDFERDEERSANGGSESDGEENIGWSTVNLDEEKQQQDFSASSTTILDEEPIVNRGLAAALLLCQNKGLLETTVQKVARVKAPNKSLPSAVYCIEDKMAIDDKYSRREEYRGFTQDFKEKDGYKPDVKIEYVDETGRKLTPKEAFRQLSHRFHGKGSGKMKTERRMKKLDEEALLKKMSSSDTPLGTVALLQEKQKAQKTPYIVLSGSGKSMNANTITK
B2: PRPF3 (protein, UniProt O43395 1-683)
chain: MALSKRELDELKPWIEKTVKRVLGFSEPTVVTAALNCVGKGMDKKKAADHLKPFLDDSTLRFVDKLFEAVEEGRSSRHSKSSSDRSRKRELKEVFGDDSEISKESSGVKKRRIPRFEEVEEEPEVIPGPPSESPGMLTKLQIKQMMEAATRQIEERKKQLSFISPPTPQPKTPSSSQPERLPIGNTIQPSQAATFMNDAIEKARKAAELQARIQAQLALKPGLIGNANMVGLANLHAMGIAPPKVELKDQTKPTPLILDEQGRTVDATGKEIELTHRMPTLKANIRAVKREQFKQQLKEKPSEDMESNTFFDPRVSIAPSQRQRRTFKFHDKGKFEKIAQRLRTKAQLEKLQAEISQAARKTGIHTSTRLALIAPKKELKEGDIPEIEWWDSYIIPNGFDLTEENPKREDYFGITNLVEHPAQLNPPVDNDTPVTLGVYLTKKEQKKLRRQTRREAQKELQEKVRLGLMPPPEPKVRISNLMRVLGTEAVQDPTKVEAHVRAQMAKRQKAHEEANAARKLTAEQRKVKKIKKLKEDISQGVHISVYRVRNLSNPAKKFKIEANAGQLYLTGVVVLHKDVNVVVVEGGPKAQKKFKRLMLHRIKWDEQTSNTKGDDDEESDEEAVKKTNKCVLVWEGTAKDRSFGEMKFKQCPTENMAREHFKKHGAEHYWDLALSESVLESTD

Molecular target: T1, FLAG-tagged USP39
Test: co-IP; FLAG-tagged USP39 expressed in A2780 cells; whole-cell extract precipitated with anti-FLAG antibody and Protein A/G beads, western blot; IgG as negative control

Row | Binder | binding
1 | B1 | binds
2 | B2 | binds
